Consider one substance from US20110230418A1.

No constants are given. Whether binding was seen depends on the method and setting. Some binding calls cover weakened binding; strength is not graded here.

This experiment deals with human HB-EGF expressed on SK-HB-1 cells (SKOV-3 cells transfected with human HB-EGF cDNA) (human) (UniProt Q99075). In words: radioligand binding to SK-HB-1 cells expressing human HB-EGF, compared with parental SKOV-3 cells.

Turning to “125I-labeled diphtheria toxin (from UniProt P00587 26-560)”, the binding result is “binds”.
